Laboratory results as given in publication doi:10.1101/2024.02.14.580290.

Protein sequences, listed by entry. Tags and fused reporters are not part of them. Lines headed by an entry give the natural chain unless they say otherwise; changes in a name come on top.
UniProt Q5W0Z9: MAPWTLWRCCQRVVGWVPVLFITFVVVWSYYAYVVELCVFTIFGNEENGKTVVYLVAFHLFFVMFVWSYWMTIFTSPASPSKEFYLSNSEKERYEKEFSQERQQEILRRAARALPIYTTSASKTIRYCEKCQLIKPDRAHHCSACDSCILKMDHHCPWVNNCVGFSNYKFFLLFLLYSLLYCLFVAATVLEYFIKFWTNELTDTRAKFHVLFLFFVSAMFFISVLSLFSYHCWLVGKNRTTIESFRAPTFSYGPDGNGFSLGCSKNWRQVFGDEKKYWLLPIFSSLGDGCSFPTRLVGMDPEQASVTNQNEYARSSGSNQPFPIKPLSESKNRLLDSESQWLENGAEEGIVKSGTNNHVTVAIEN

B1: Linker for activation of T cells (LAT) (protein, UniProt O43561 1-262)
chain: MEEAILVPCVLGLLLLPILAMLMALCVHCHRLPGSYDSTSSDSLYPRGIQFKRPHTVAPWPPAYPPVTSYPPLSQPDLLPIPRSPQPLGGSHRTPSSRRDSDGANSVASYENEGASGIRGAQAGWGVWGPSWTRLTPVSLPPEPACEDADEDEDDYHNPGYLVVLPDSTPATSTAAPSAPALSTPGIRDSAFSMESIDDYVNVPESGESAEASLDGSREYVNVSQELHPGAAKTEPAALSSQEAEEVEEEGAPDYENLQELN
B2: ICAM-2 (protein, UniProt P13598 25-275)
chain: KVFEVHVRPKKLAVEPKGSLEVNCSTTCNQPEVGGLETSLDKILLDEQAQWKHYLVSNISHDTVLQCHFTCSGKQESMNSNVSVYQPPRQVILTLQPTLVAVGKSFTIECRVPTVEPLDSLTLFLFRGNETLHYETFGKAAPAPQEATATFNSTADREDGHRNFSCLAVLDLMSRGGNIFHKHSAPKMLEIYEPVSDSQMVIIVTVVSVLLSLFVTSVLLCFIFGQHLRQQRMGTYGVRAAWRRLPQAFRP

Target: DHHC20 (DHHC20-linker-TEV-TwinStrep) (UniProt Q5W0Z9)
Assay: affinity purification with mass spectrometry

Row | Binder | binding
1 | B1 | binds
2 | B2 | binds

No constants are given. Whether binding was seen depends on the method and setting. In cells and extracts the contact can be indirect. These calls come from enrichment with a bait or labelling near it, and not all partners need be listed.
